In publication PMC12117058:
Substitutions are numbered along the chain they refer to. These are yes or no findings as the source states them, for the method shown. In cells and extracts the contact can be indirect. Some binding calls cover weakened binding; strength is not graded here.

Sequences of proteins named here, by UniProt entry; tags and fusion partners are left off.
UniProt B2RYW8: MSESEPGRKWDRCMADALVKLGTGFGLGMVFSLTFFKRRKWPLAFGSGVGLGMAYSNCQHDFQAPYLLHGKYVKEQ

Tests used:
[1] = molecular target: T1, Arginase 1 (rat (endogenous in VSMCs of Sprague-Dawley rats)) (UniProt P07824); assay: co-IP; endogenous Arg1 and Mic10 in VSMCs; normal against hypoxia; hypoxia with siNC against siArg1
T1 sequence: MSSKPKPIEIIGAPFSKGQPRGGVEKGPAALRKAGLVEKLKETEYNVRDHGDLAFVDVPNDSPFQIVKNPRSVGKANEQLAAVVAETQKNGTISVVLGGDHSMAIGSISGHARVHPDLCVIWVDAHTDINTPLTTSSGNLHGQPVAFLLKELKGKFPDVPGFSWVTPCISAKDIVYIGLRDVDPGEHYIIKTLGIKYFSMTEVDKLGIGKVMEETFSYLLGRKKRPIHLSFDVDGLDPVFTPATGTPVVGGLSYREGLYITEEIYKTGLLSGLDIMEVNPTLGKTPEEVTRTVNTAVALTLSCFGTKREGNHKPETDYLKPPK

wild-type Arg1 (Arg1^WT) = molecular target: T2, wild-type Arg1 (Arg1^WT) (UniProt P07824); assay: co-IP; hypoxic VSMCs with adenoviral Arg1^WT or Arg1^E42A; endogenous Mic10
T2 sequence: T1 sequence

Arg1 (E42A) mutation = molecular target: T3, Arg1 (E42A) mutation (UniProt P07824); assay: as above
T3 sequence: T1 sequence with E42A

Measured: binding

Mic10 (from UniProt B2RYW8 1-76)
binds: [1] | wild-type Arg1 (Arg1^WT) | Arg1 (E42A) mutation
